Among all 320,000 compounds or so, about 620 (0.19%) were called active. The inconclusive results got no clear call from the source; some entries with a clear call stand among them for comparison. No stated cut-off is given here; in the data, active means activation above about 80%; inconclusive means between about 30% and that limit; inactive means weaker than that.
molecular target: Transient receptor potential cation channel subfamily V member 1 (Homo sapiens) (UniProt Q8NER1); assay: HTS Assay for Compounds that Act as Agonists of the Vanilloid Receptor 1; settings: TRPV1-expressing cells, Fluo-8 calcium influx, agonist mode; at 8.33 µM, stronger effect = higher value; further: 0% is about no effect
Summary of the method: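 Cells expressing TRPV1 were dye-loaded with Fluo-8 and read kinetically: 10 s baseline, 3 min after compound (agonist portion), then 2 min after EC20 capsaicin (allosteric enhancer portion). Calcium-bound dye fluorescence at 480/520 nm.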

Amino acid sequences for entries named in this document (tags omitted).
UniProt Q8NER1, whole entry, looked up: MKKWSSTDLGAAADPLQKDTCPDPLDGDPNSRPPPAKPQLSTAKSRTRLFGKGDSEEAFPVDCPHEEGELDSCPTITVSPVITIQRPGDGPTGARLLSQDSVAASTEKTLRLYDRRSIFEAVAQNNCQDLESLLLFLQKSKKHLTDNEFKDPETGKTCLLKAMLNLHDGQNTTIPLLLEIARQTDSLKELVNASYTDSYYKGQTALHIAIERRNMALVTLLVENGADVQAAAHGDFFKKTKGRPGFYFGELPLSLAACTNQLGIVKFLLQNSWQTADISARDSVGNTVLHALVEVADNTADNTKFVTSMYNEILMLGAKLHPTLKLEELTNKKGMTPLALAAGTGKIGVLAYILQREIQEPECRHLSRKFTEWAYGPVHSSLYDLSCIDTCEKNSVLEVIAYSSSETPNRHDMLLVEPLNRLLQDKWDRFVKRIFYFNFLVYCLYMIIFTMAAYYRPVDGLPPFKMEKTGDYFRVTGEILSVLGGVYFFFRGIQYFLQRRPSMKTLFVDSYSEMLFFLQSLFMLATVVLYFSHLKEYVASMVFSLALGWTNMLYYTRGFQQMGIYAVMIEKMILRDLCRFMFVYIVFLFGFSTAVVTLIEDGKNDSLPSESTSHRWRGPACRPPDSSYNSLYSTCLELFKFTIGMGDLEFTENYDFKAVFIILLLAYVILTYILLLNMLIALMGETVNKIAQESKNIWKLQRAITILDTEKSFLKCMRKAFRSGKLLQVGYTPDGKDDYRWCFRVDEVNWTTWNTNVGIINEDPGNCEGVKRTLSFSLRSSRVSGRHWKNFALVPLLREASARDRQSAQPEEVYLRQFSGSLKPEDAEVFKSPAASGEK

Structure (SMILES)	activation
COCCN1C(=O)c2cc(C(=O)Nc3cccc(F)c3)ccc2C1Nc1cccc(F)c1 (configuration not stated)	inconclusive: 36.7%
CCOC(=O)c1[nH]c(C)c(/C(O)=C2\C(=O)C(=O)N(CCN(C)C)C2c2ccco2)c1C (configuration not stated)	inactive: -2.66%
COc1ccc(C(=O)Nn2c(SCC(=O)NC3CCCCC3)nc3ccccc3c2=O)cc1	inconclusive: 79.3%
O=C1NC(=S)N(C(=O)c2ccc(F)cc2)/C1=C/c1cccnc1	inactive: 4.36%
Cc1nn(C)cc1CN1CCCC(C(=O)c2ccc(-c3ccccc3)c(F)c2)C1 (configuration not stated)	inconclusive: 51.8%
O=C(Nc1ccc(F)cc1F)N1CCCN(c2ccc(C(F)(F)F)cn2)CC1	inconclusive: 31.9%
COc1cccc(CC2(CO)CCN(C(=O)NCCc3ccccc3)CC2)c1	inconclusive: 35.5%
CCOc1cc(C2C3=C(CCCC3=O)N(CCC(=O)O)C3=C2C(=O)CCC3)ccc1OS(=O)(=O)c1ccc(C)cc1	inactive: 4.86%
O=C(c1cc([N+](=O)[O-])ccc1N1CCOCC1)N1CCN(c2ccc([N+](=O)[O-])cc2)CC1	inactive: -0.132%
O=c1n(Cc2ccc(F)cc2)nc2n1-c1ccccc1SC2	inconclusive: 36.2%
O=C(N/N=C/c1ccncc1)c1ccccc1[N+](=O)[O-]	inactive: -5.97%
Cc1nn(C)c(C(=O)Nc2ccc(S(=O)(=O)NC34CC5CC(CC(C5)C3)C4)cc2)c1Br	inactive: 2.15%
CC(=O)c1cccc(NC(=O)Nc2ccc(C(=O)N3CCCC3)cc2)c1	inactive: -1.01%
O=C1N=C(N2CCCCC2)S/C1=C/C1=Cc2ccccc2OC1	inconclusive: 75.6%
CCC(C)C(=O)OCC1(c2ccc(C)cc2OC(=O)C(C)C)CO1 (configuration not stated)	inconclusive: 33.8%
COc1ccc(NC(=S)N2CCc3cc(OC)c(OC)cc3C2)cc1	inconclusive: 47.4%
CCc1ccccc1OCCCOc1ccc(OC)cc1	inactive: -2.12%
O=C(N1CCOCC1)N1CCN(c2ccccc2)CC1	inconclusive: 58.6%
O=C1COc2ccc(NC(=O)N3CCN(c4ccc(F)cc4)CC3)cc2N1	inconclusive: 76.5%

Structure (SMILES)	activation
CS(=O)(=O)N(CC(=O)Nc1cccc(Cl)c1)c1ccccc1Cl	inconclusive: 41.7%
CNc1ccc2c3c(cccc13)C(=O)N(C)C2=O	active: 103%
Cc1cccc(N2CCN(C(=O)c3ccncc3)CC2)c1C	inconclusive: 56.7%
O=C(CSc1nc2ccccc2o1)Nc1ccccc1	inconclusive: 44.1%
CCCCN(C(=O)c1oc2ccc(OCC)cc2c1C)c1c(N)n(CC(C)C)c(=O)[nH]c1=O	inactive: 9.36%
O=C(Nc1cccnc1)c1cc(Br)c(Br)s1	inconclusive: 35.7%
CC(C)c1ccc(NC(=O)COc2ccccc2)cc1	inconclusive: 63.8%
CCNS(=O)(=O)c1ccc(S(=O)(=O)N(Cc2ccccn2)C2CCCCC2)cc1	inconclusive: 45.5%
COc1ccc(N/N=C/c2c(C(=O)O)ccc3ccccc23)cc1	inconclusive: 43%
CCCCN(CC)C(=O)c1ccccc1Oc1ccccc1	inconclusive: 38.6%
O=C1CN(C(=O)c2cc3ccccc3oc2=O)C(c2ccc(F)cc2)c2cc(Br)ccc2N1 (configuration not stated)	inconclusive: 40.5%
O=C(Nc1cccc(-c2nc3ccccc3s2)c1)c1cccs1	inconclusive: 32.5%
S=c1[nH]nc(COc2ccccc2)n1/N=C/c1ccc(Cl)cc1	inconclusive: 31.5%
COc1ccccc1CCNC(=O)/C(=C/c1cccnc1)NC(=O)c1ccccc1	inactive: 1.39%
O=C1C(Cl)=C(N2CCOCC2)C(=O)N1c1ccc(Br)cc1	inconclusive: 44%
O=C(Nc1ccc2c(c1)CCC2)c1cccc(F)c1	active: 97.4%
O=C(C1CCN(c2nnc(-n3cccc3)s2)CC1)N1CCCCC1	inconclusive: 44.2%
Cc1c(NC(=O)c2cc(-n3cnnc3)ccc2Cl)cccc1-c1nc2ccccc2o1	inactive: 0.415%
Cc1cc(NC(=O)c2ccc(-c3ccccc3F)o2)no1	inconclusive: 36.3%

Taken from the listing, 3 compounds:
Structure (SMILES)	activation
S=c1[nH]nc(COc2ccccc2)n1/N=C/c1ccc(Cl)cc1	inconclusive: 31.5%
COc1ccccc1CCNC(=O)/C(=C/c1cccnc1)NC(=O)c1ccccc1	inactive: 1.39%
O=C1C(Cl)=C(N2CCOCC2)C(=O)N1c1ccc(Br)cc1	inconclusive: 44%

Additional results follow.

Structure (SMILES)	activation
COc1ccc(NC(=O)c2cc(F)cc(F)c2)cc1Cl	inconclusive: 30.6%
CC(C)(C)c1ccc(/C=C/C(=O)Nc2nncs2)cc1	inconclusive: 68%
COc1ccc(NC(=O)c2oc3ccccc3c2NC(=O)C(C)(C)C)cc1	inconclusive: 51.3%
COCC1CCCCN1C(=O)c1ccc2nc(Cc3ccc(OC)c(OC)c3)oc2c1 (configuration not stated)	inconclusive: 31.5%
O=C(NC(=S)NCc1ccccc1)c1ccc(Br)o1	inconclusive: 53.8%
O=C(Nc1ccccc1)N(Cc1ccccc1)CC(O)C(F)(F)F (configuration not stated)	inactive: -4.43%
Cc1cc(C(=O)Cn2nnc(-c3ccc(Cl)cc3)n2)c(C)n1CC1CCCO1 (configuration not stated)	inconclusive: 62.6%
CC(C)OC(=O)c1cn(-c2ccccc2)nc1-c1ccc2c(c1)OCCO2	inconclusive: 37.6%
COC(=O)C1=CN(Cc2cccs2)C=C(C(=O)OC)C1c1ccc(OC)cc1OC	inconclusive: 36.8%
CCCCSc1nc2c(c(=O)[nH]c(=O)n2C)n1CCc1ccccc1	inconclusive: 48.1%
S=C(NCc1ccco1)Nc1ccc(Cl)cc1Cl	inconclusive: 43.5%
COc1ccc(OC)c(C2=Nn3c(nnc3-c3cc(OC)c(OC)c(OC)c3)SC2)c1	inconclusive: 61.1%
N=c1c2c(n(Cc3ccc(Br)cc3)c3c1CCC3)CCCC2	inactive: 10.6%
CCC1CCCCN1S(=O)(=O)c1ccc2c(c1)CCN2C(=O)C1CCC1 (configuration not stated)	inconclusive: 50.1%
Cc1onc(-c2ccccc2Cl)c1C(=O)NC(=S)NCC(=O)c1ccccc1	inactive: -0.703%
COc1cccc(/C=N/n2c(C)nc3ccccc3c2=O)c1O	inconclusive: 34.3%
COc1ccc(/C=N/NC(=O)c2ccc(CN3C(=O)c4cccc5cccc3c45)cc2)cc1O	inconclusive: 36.7%
Cn1nc(C(F)(F)F)cc1C(=O)NC1CCCCCC1	inconclusive: 36.3%
COc1ccc(S(=O)(=O)N2CCN(c3ncccn3)CC2)cc1[N+](=O)[O-]	inconclusive: 35.2%
